The text below walks through data of publication PMC11261967, “The retrotransposon-derived capsid genes PNMA1 and PNMA4 maintain reproductive capacity” (Research Square, 2024).

Common to all, as to test: sedimentation through a sucrose cushion; culture medium of transfected HEK293T cells, filtered (0.45 um), concentrated over a 100 kD MWCO filter, layered on a sucrose cushion, 38,000 rpm, 3 hr, 4 C; fractions and pellet immunoblotted (anti-V5)
Assay [1] addresses 3V5-tagged human PNMA4 (human) (UniProt Q96BY2).
The target in assay [2] is 3V5-tagged human PNMA1 (human) (UniProt Q8ND90).
Assay [3] concerns the target 3V5-tagged human ARC (human) (UniProt Q7LC44).

Results are given in words; binding and its absence hold for the method and conditions named. Some binding calls cover weakened binding; strength is not graded here. Sequences can lack the tags named with a protein.

B1: 3V5-tagged human PNMA4 (protein, UniProt Q96BY2 1-351)
chain: MTLRLLEDWCRGMDMNPRKALLIAGISQSCSVAEIEEALQAGLAPLGEYRLLGRMFRRDENRKVALVGLTAETSHALVPKEIPGKGGIWRVIFKPPDPDNTFLSRLNEFLAGEGMTVGELSRALGHENGSLDPEQGMIPEMWAPMLAQALEALQPALQCLKYKKLRVFSGRESPEPGEEEFGRWMFHTTQMIKAWQVPDVEKRRRLLESLRGPALDVIRVLKINNPLITVDECLQALEEVFGVTDNPRELQVKYLTTYQKDEEKLSAYVLRLEPLLQKLVQRGAIERDAVNQARLDQVIAGAVHKTIRRELNLPEDGPAPGFLQLLVLIKDYEAAEEEEALLQAILEGNFT
Take B1: the binding result in assay [1] is reported as “binds”.

B2: 3V5-tagged human PNMA1 (protein, UniProt Q8ND90 1-353)
chain: MAMTLLEDWCRGMDVNSQRALLVWGIPVNCDEAEIEETLQAAMPQVSYRMLGRMFWREENAKAALLELTGAVDYAAIPREMPGKGGVWKVLFKPPTSDAEFLERLHLFLAREGWTVQDVARVLGFQNPTPTPGPEMPAEMLNYILDNVIQPLVESIWYKRLTLFSGRDIPGPGEETFDPWLEHTNEVLEEWQVSDVEKRRRLMESLRGPAADVIRILKSNNPAITTAECLKALEQVFGSVESSRDAQIKFLNTYQNPGEKLSAYVIRLEPLLQKVVEKGAIDKDNVNQARLEQVIAGANHSGAIRRQLWLTGAGEGPAPNLFQLLVQIREEEAKEEEEEAEATLLQLGLEGHF
With B2, in assay [2], the binding entry is on record as “binds”.

B3: 3V5-tagged human ARC (protein, UniProt Q7LC44 1-396)
chain: MELDHRTSGGLHAYPGPRGGQVAKPNVILQIGKCRAEMLEHVRRTHRHLLAEVSKQVERELKGLHRSVGKLESNLDGYVPTSDSQRWKKSIKACLCRCQETIANLERWVKREMHVWREVFYRLERWADRLESTGGKYPVGSESARHTVSVGVGGPESYCHEADGYDYTVSPYAITPPPAAGELPGQEPAEAQQYQPWVPGEDGQPSPGVDTQIFEDPREFLSHLEEYLRQVGGSEEYWLSQIQNHMNGPAKKWWEFKQGSVKNWVEFKKEFLQYSEGTLSREAIQRELDLPQKQGEPLDQFLWRKRDLYQTLYVDADEEEIIQYVVGTLQPKLKRFLRHPLPKTLEQLIQRGMEVQDDLEQAAEPAGPHLPVEDEAETLTPAPNSESVASDRTQPE
Turning to B3, in assay [3], the binding entry is on record as “binds”.
